Data: publication PMC2820462, “Inhibition of receptor tyrosine kinase signalling by small molecule agonist of T-cell protein tyrosine phosphatase” (BMC Cancer, 2010)
These are yes or no findings as the source states them, for the method shown. Some binding calls cover weakened binding; strength is not graded here.

T1: biotinylated integrin α1 cytoplasmic tail peptide (biotin-…)
T1 sequence (peptide, biotin on the N-terminus): WKIGFFKRPLKKKMEK

T2: T-cell protein tyrosine phosphatase, 45 kDa form (TC45) (UniProt P17706)
T2 sequence: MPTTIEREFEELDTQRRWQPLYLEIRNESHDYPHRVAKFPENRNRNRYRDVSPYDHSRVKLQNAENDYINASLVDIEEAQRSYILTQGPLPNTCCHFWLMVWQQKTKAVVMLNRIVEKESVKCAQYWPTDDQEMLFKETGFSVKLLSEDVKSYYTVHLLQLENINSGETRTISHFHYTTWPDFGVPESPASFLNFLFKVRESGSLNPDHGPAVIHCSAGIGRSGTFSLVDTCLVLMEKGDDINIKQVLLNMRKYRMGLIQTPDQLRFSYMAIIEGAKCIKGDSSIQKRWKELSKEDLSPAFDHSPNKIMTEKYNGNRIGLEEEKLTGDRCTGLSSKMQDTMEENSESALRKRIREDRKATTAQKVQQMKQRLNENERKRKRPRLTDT

B1: T-cell protein tyrosine phosphatase, 45 kDa form (TC45) (enzyme, UniProt P17706-2 1-387)
chain: T2 sequence

Experiments:
[1] = molecular target: T1, biotinylated integrin α1 cytoplasmic tail peptide (biotin-…); experiment: ELISA; biotin-α1 cytoplasmic tail (2.5 μM) held on streptavidin plate; purified TC45 added alone or with 11 μM soluble α1-cyt or α2-cyt peptide, room temperature 1 h; bound TC45 detected with anti-TCPTP antibody CF4 and HRP; both purified
[2] = molecular target: T2, T-cell protein tyrosine phosphatase, 45 kDa form (TC45); experiment: as above

| Binder | binding [1] | binding [2] |
| --- | --- | --- |
| B1 | binds | – |
| RPLKKKMEK [α1-cyt peptide (α1 cytoplasmic specific sequence lacking the conserved domain, RPLKKKMEK)] | – | binds |
